Measurements from PMC5785033.

By UniProt entry, the sequences of proteins in these tests, tags left out.
UniProt Q91VN6: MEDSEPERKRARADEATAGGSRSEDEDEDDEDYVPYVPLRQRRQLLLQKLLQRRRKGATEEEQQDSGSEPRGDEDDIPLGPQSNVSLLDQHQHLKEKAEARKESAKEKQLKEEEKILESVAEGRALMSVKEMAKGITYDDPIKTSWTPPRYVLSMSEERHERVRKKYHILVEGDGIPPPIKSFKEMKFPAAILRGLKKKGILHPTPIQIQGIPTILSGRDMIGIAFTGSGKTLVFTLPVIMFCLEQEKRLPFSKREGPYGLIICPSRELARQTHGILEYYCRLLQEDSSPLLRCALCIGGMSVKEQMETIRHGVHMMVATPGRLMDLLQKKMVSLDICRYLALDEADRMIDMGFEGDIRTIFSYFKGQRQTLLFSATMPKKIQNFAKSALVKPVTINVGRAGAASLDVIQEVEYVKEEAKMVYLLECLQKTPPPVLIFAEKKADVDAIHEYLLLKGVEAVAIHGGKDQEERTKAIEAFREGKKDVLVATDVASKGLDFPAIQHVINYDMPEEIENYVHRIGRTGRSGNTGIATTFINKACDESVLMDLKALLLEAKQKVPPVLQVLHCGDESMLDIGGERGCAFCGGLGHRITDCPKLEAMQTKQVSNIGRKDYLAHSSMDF

T1: MORC2B (mouse (endogenous in testis)) (UniProt Q8C5W4)
T1 sequence: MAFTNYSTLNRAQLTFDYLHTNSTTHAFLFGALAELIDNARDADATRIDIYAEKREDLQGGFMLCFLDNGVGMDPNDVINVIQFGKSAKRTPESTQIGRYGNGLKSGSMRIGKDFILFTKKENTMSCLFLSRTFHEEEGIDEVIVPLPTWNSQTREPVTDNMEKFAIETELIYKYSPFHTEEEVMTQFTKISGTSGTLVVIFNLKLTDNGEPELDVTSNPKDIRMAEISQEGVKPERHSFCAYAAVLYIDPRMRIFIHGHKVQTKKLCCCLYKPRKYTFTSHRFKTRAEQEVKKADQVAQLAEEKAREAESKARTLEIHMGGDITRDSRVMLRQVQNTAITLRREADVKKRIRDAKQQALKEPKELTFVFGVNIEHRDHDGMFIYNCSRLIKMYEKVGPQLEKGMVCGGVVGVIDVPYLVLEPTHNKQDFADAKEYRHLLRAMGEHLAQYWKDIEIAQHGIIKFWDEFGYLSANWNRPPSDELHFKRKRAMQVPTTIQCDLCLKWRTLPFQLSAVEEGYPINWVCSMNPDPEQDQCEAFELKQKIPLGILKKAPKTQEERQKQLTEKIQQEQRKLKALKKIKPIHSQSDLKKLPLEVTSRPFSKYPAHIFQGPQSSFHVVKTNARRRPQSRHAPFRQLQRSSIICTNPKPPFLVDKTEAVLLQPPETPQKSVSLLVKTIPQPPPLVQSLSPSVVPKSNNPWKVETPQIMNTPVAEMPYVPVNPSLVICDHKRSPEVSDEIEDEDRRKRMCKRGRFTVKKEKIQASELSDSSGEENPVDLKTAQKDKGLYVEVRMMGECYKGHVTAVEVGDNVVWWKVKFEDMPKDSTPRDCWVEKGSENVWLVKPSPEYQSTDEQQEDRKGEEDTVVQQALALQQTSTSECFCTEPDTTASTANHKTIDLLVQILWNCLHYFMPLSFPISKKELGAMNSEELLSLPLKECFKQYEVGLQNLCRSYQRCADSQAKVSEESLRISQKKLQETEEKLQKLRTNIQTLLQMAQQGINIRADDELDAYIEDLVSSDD

B1: MORC2A (protein, UniProt Q69ZX6 1-1030)
chain: MAFTNYSSLNRAQLTFEYLHTNSTTHEFLFGALAELVDNARDADATRIDIYAERREDLRGGFMLCFLDDGAGMDPSDAASVIQFGKSAKRTPESTQIGQYGNGLKSGSMRIGKDFILFTKKEDTMTCLFLSRTFHEEEGIDEVIVPLPTWNARTREPITDNVEKFAIETELVYKYSPFHTEEQVMNQFMKIPGNSGTLVIIFNLKLMDNGEPELDIISNPKDIQMAETSPEGTKPERRSFRAYAAVLYIDPRMRIFIHGHKVQTKRLSCCLYKPRMYKYTSSRFKTRAEQEVKKAEHVARIAEEKAREAESKARTLEVRMGGDLTRDSRVMLRQVQNTAITLRREADVKKRIKDAKQRALKEPKELNFVFGVNIEHRDLDGMFIYNCSRLIKMYEKVGPQLEGGMACGGVVGVVDVPYLVLEPTHNKQDFADAKEYRHLLRAMGEHLAQYWKDIAIAQRGIIKFWDEFGYLSANWNQPPSSELRFKRRRAMEIPTTIQCDLCLKWRTLPFQLSSVETDYPDTWVCSMNPDPEQDRCEASEQKQKVPLGTLKKDPKTQEEKQKQLTEKIRQQQEKLEALQKTTPIRSQADLKKLPLEVTTRPIEEPVRRPQRPRSPPLPAVIKNAPSRPPSIQTPRPSTQLRKTSVISLPKPPTTAARGETSTSRLLQPTEAPRKPANPPIKTVPRPTPPVHTPPLSLIPSSKSLREVPAQKAIKTPVVKKPEPPVKQSVATSGRKRSLAVSDEEEAEEEAEKRRERCKRGKLAVKEEKKEANELSDSAGEDHPAELRKAQKDKGLHVEVRVNREWYTGRVTAVEVGKNAVRWKVKFDYVPTDTTPRDRWVEKGSEDVRLMKPPSPEHQSPDTQQEGGEEEEAMVARQAVALPEPSTSDGLPIEPDTTATSPSHETIDLLVQILRNCLRYFLPPSFPISKKELSVMNSEELISFPLKEYFKQYEVGLQNLCHSYQSRADSRAKASEESLRTSEKKLRETEEKLQKLRTNIVALLQKVQEDIDINTDDELDAYIEDLITKGD
B2: ARID3B (protein, UniProt Q9Z1N7 1-568)
chain: MEPLQQQQQQQQQKQPQQPLLQMDAREKQGPQTRESQFLYASKLGTQPALLSITPGRPSGSSVLGPLARVPPATPVARMSEQSNVNSEPEEEEGGLEDEDGDDDVAEVAEKEAQAASKYFHMQKVTRQEPRATPMSSLLPVPGLSPQGQQTKEDHTKDASKAPPSVPTAGQPSWSLDEQLKQNGALAWSDDADGGRGREISRDFAKLYELDGDPERKEFLDDLFIFMQKRGTPINRIPIMAKQILDLYMLYKLVTEKGGLVEIINKKIWREITKGLNLPTSITSAAFTLRTQYMKYLYAYECEKKALSSPAELQAAIDGNRREGRRPSYSSSLFGYSPAAAAAAAAAAAAAAASAASAGTPALLSSPKIRFSILGLGSSSGTSASSPRIPPASTLRKGDGVPVPVPNRLAVSGTLAGQQAGNRPGPLEHLRERLESGEPPEKKASRLSEEEQRLVQQAFQRNLFSMARQLPMKIRINGREDRAEPSAPALNLTTSNIGSINMSVDIDGTTYTGVLFAQKPVVHLIAGSTPQSIGSSASSSNSSSSHCSPSPTSSRGTPSAEPSTSWSL

Target: T1, MORC2B (mouse (endogenous in testis))
Experiment: affinity purification with mass spectrometry; IP with affinity-purified MORC2B antibodies from postnatal day 20 mouse testis extracts; SDS-PAGE, SYPRO Ruby; bands present in wild type but not Morc2b-/- IP cut out for mass spectrometry

binding, binds:
DDX41 (from UniProt Q91VN6 1-622)
B1
B2

Results are given in words; binding and its absence hold for the method and conditions named. In cells and extracts the contact can be indirect. Here binding means that the protein was enriched with, or labelled near, the bait; the list need not be complete.
